Assay results published in PubChem BioAssay AID720711 (National Center for Advancing Translational Sciences (NCATS), 2013).
Screen size: about 360,000 compounds; about 290 (0.081%) were called active. The shares of active, inactive and inconclusive entries below differ from those in the screen. The call rests on the fitted dose curve; in most records, active means well fitted activation curve with a large enough effect; inconclusive means small, poorly fitted or top-dose-only effect; inactive means no such curve, though single readings can be large or run the other way. Where the call is inconclusive, the potency comes from a doubtful curve fit.

Protein sequences, listed by entry. Tags and fused reporters are not part of them. Lines headed by an entry give the natural chain unless they say otherwise; changes in a name come on top.
UniProt Q8WZA2: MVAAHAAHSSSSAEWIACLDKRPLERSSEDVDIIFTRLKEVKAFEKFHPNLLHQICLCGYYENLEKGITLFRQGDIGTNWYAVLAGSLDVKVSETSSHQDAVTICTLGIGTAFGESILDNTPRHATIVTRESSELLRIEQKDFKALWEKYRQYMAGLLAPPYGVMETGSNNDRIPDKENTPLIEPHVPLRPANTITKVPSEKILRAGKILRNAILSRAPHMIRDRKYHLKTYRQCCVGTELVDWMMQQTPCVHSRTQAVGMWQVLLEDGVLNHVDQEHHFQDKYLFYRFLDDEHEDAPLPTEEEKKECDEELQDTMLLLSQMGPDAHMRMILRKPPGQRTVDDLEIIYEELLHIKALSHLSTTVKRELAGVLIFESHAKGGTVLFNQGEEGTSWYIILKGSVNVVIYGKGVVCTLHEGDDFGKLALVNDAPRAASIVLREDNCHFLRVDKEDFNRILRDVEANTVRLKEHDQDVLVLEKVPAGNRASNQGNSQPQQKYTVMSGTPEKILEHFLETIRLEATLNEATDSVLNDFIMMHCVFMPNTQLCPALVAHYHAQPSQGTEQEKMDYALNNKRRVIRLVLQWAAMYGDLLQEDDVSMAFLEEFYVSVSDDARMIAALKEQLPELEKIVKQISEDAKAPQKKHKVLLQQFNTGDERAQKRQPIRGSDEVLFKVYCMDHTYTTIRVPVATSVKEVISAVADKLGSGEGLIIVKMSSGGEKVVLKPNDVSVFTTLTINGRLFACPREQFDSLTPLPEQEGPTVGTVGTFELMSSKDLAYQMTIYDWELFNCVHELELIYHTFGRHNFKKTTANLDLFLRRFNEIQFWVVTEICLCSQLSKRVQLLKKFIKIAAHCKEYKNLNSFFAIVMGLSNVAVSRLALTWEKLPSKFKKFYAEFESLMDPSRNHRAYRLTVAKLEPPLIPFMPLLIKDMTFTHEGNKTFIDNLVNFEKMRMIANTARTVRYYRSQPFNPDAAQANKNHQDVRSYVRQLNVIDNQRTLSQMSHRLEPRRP

biological target: Rap guanine nucleotide exchange factor 4 (Homo sapiens) (UniProt Q8WZA2); test: qHTS for Agonist of cAMP-regulated guanine nucleotide exchange factor 4 (EPAC2): primary screen; conditions: biochemical qHTS; Potency: EPAC2 activation unless noted; activation: at 154 µM (top of the series), 100% = 6.5 mM cAMP response unless noted; further: nearly all actives have a fitted effect of over 50% in size
Outline: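 Compounds were titrated in qHTS against a Rap1B-BODIPY-GDP (250 nM) complex with EPAC2 (100 nM) and GDP (50 uM). BODIPY-GDP release tracked at 480/540 nm over 30 min at room temperature, normalized to 6.5 mM cAMP.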
Potency means the concentration at half of the fitted maximal effect.

SMILES	Potency	activation
Cc1ccc2[nH]c(C)c(/C=C/c3cc[n+](C)cc3)c2c1	inconclusive: 44.7 µM [activator, full curve]	
COc1ccc(-n2c(SCc3ccccn3)nc3c(c2=O)SCC3)cc1OC	inactive	
CCCCC1=CC2=CC(=O)C(C)(OC(=O)CC)C(=O)C2=CN1CCc1ccc(Br)cc1 (centres undefined)	inactive	
CCc1nc2ccc(C(=O)N(C)CCCN(C)C)cn2c1N(C)Cc1cc2ccccc2s1	inactive	
COC(=O)c1cc(=O)n(-c2ccccc2)c(=Nc2ccccc2)s1	inconclusive: 112 µM [activator, partial curve]	
Cc1ccc(-c2nn(-c3ccccc3)cc2/C=C2\SC(=S)N(CCCCCC(=O)O)C2=O)o1	active: 126 µM	
Cc1nc(Cl)c2c(n1)NC1=C(O2)C(=O)CCC1	inconclusive: 4.47 µM [activator, full curve, poor fit]	
COc1ccc(C2C(C(C)=O)=C(C)N=c3s/c(=C\c4cc(C)n(C)c4C)c(=O)n32)c(OC)c1 (centres undefined)	inconclusive: 112 µM [activator, single point]	
CN1C(=O)/C(=C\c2ccc(N(C)C)cc2)OC1=S	inactive	
Oc1[nH]c2ccccc2c1N=Nc1ccccc1Cl	inconclusive: 100 µM [activator, partial curve]	
CC(Sc1nc2ccc(C(=O)c3ccccc3)cc2[nH]1)C(=O)O (centres undefined)	inconclusive: 112 µM [activator, single point]	
O=C(O)c1ccc(-c2ccccc2Cl)o1	inactive	
C/C(=N/NC(N)=S)c1cc2ccc(O)cc2oc1=O	inconclusive: 79.4 µM [activator, partial curve]	
O=C(NCc1ccc(F)cc1)C(c1cccnc1)N(C(=O)c1csnn1)c1ccccc1 (centres undefined)	inconclusive: 112 µM [activator, single point]	
CCOc1ccc(CNC(=S)N/N=C/c2ccc(OC)c(OC)c2)cc1	inactive	
CC1(c2ccccc2)CC(c2ccccc2)=Nc2nonc2N1 (centres undefined)	inconclusive: 112 µM [activator, single point]	
O=[N+]([O-])c1ccccc1SNc1ccccc1	inconclusive: 8.91 µM [activator, full curve]	
O=C(COc1ccccc1)NNC1=NS(=O)(=O)c2ccccc21	inconclusive: 126 µM [activator, single point]	
CN(C)c1nc(OCCNC(=O)Nc2ccccc2)nc(N(C)C)n1	active: 10 µM	
O=C(CSc1nnc(CCc2nc3ccccc3[nH]2)n1-c1ccccc1)NCc1ccccc1		inconclusive: 95.3% [activator] [at 15.6 µM, 100% = 6.5 mM cAMP response]
Cc1cccc(OCC(=O)Nc2ccc3oc(=O)ccc3c2)c1C	inconclusive: 112 µM [activator, single point]	
O=C(N/N=C/c1c(O)ccc2ccccc12)c1cccc(C(F)(F)F)c1	inconclusive: 112 µM [activator, partial curve, poor fit]	
O=C(COC(=O)C12CC3CC(CC(C3)C1)C2)N1CCN(S(=O)(=O)c2ccccc2)CC1	inconclusive: 4.47 µM [activator, full curve, poor fit]	

SMILES	Potency	activation
Cc1ccc(S(=O)(=O)N2CCOCC2)cc1C(=O)N1C(=O)c2cccc(N)c2C1=O	inconclusive: 112 µM [activator, single point]	
CCOC(=O)Cn1c2c(c(=N)c3c1CCC3)CCCC2		inconclusive: 5.17% [activator]
C[n+]1cccc2c(Br)ccc([O-])c21	inconclusive: 70.8 µM [activator, partial curve]	
COc1c(Cl)cc(-c2noc(C)c2C(=O)NCc2ccc3c(c2)OCO3)cc1Cl	inconclusive: 15.8 µM [activator, partial curve]	
COc1ccc(C(=O)C2CCCN(Cc3cccn3-c3ccc(Cl)cn3)C2)c(OC)c1 (centres undefined)	inactive	
CCOC(=O)/C(C#N)=C/c1cc2ccccc2nc1N1CCOCC1	inconclusive: 112 µM [activator, single point]	
CCCCCn1nc(-c2ccccc2)c2nc3ccccc3nc21	active: 100 µM	
COc1ccc(N(CC(=O)Nc2cccc(C(C)=O)c2)S(C)(=O)=O)cc1OC	inconclusive: 126 µM [activator, single point]	
COC(=O)c1cnc(N2CCCN(S(=O)(=O)c3ccccc3)CC2)nc1C(F)(F)F	inconclusive: 50.1 µM [activator, single point]	
CCOC(=O)c1cc(CC)sc1NC(=O)COc1ccc2c(C)cc(=O)oc2c1	inconclusive: 126 µM [activator, single point]	
COc1ccc(-c2csc3nc(-c4cccnc4)nc(N4CCC(C(N)=O)CC4)c23)cc1OC	inactive	
Cc1ccc(NC(=O)CSCc2ccco2)cc1	inactive	
O=c1oc2cc(O)ccc2cc1-c1nc2c(s1)CCc1ccccc1-2	inconclusive: 126 µM [activator, single point]	
N#Cc1c(-c2ccccc2)cc(-c2ccc(O)cc2)nc1N	inconclusive: 100 µM [activator, partial curve]	
CN1CCN(C2=Cc3cc(Cl)ccc3Sc3cc(F)ccc32)CC1	inconclusive: 79.4 µM [activator, partial curve]	
COC(=O)[C@]1(CC(C)C)N[C@H](c2ccc(-c3cccc(Cl)c3)cc2)[C@@H]2C(=O)N(C)C(=O)[C@@H]21	inconclusive: 28.2 µM [activator, single point]	
Cc1ccccc1C(=O)Nc1ccnn1C1CCN(C(=O)c2cnsn2)CC1	inactive	
O=C1C2C3CCCC3=C3CCCC3C2C(=O)N1c1ccc(Cl)cc1 (centres undefined)	inconclusive: 50.1 µM [activator, single point]	
COc1ccc(-c2nnc(SC(C(=O)c3c[nH]c4ccccc34)c3ccccc3)n2N)cc1OC (centres undefined)	inactive	
CCCSc1nnc(NC(=O)c2sc3nc(-c4cccs4)ccc3c2N)s1	inconclusive: 126 µM [activator, single point]	
c1ccc(CCCCc2ccccn2)cc1	inactive	
C#CCOCCOCCOCCNc1nc(N2CCN(C(=O)CCCCCCCCCCNC(=O)[C@H](CCCCN)n3cc(C)nn3)CC2)nc(N2CCN(C(=O)CCCCCCCCCCNC(=O)[C@H](CO)n3cc(CCCSC)nn3)CC2)n1	inconclusive: 39.8 µM [activator, full curve]	
Cc1cccc(NC(=O)c2sc(Cl)nc2-c2ccccc2)c1	inconclusive: 126 µM [activator, single point]	

One compound at a time (already shown).
Cc1cccc(NC(=O)c2sc(Cl)nc2-c2ccccc2)c1 is entered as Potency: inconclusive: 126 µM [activator, single point]
COc1ccc(-c2nnc(SC(C(=O)c3c[nH]c4ccccc34)c3ccccc3)n2N)cc1OC (centres undefined) is entered as Potency: inactive

The list goes on:

SMILES	Potency	activation
Cc1ccc(S(=O)(=O)N2CCN(CC(=O)Nc3ccc([N+](=O)[O-])cc3)CC2)cc1C	inactive	
CC[n+]1c(/C=C/C=C/N(C(C)=O)c2ccccc2)sc2ccccc21	active: 100 µM	
COc1ccc2nc(NC(=O)C3CCCN3S(=O)(=O)c3ccc(C)cc3)sc2c1 (centres undefined)	inconclusive: 100 µM [activator, partial curve]	
c1ccc(-c2cn3nc(-c4ccccc4)c(-c4ccccc4)nc3n2)cc1	inconclusive: 100 µM [activator, partial curve]	
COc1ccc(-n2c(O)c(/C=N/NS(=O)(=O)c3cc(C)ccc3C)c3ccccc3c2=O)cc1OC	inconclusive: 126 µM [activator, single point]	
CCCCS/C(N)=N/N=C/c1ccccc1O	inactive	
COc1cc(CNn2cnnc2)ccc1OCC(=O)NC(C)(C)C	active: 10 µM	
Nn1cnnc1N/N=C\c1ccc(-c2ccccc2[N+](=O)[O-])o1	inactive	
N=C1/C(=C\c2coc3ccc(O)cc3c2=O)C(=O)N=C2SC=CN12	active: 63.1 µM	
O=C(Cn1nnc2ccccc21)NCc1ccccc1	inconclusive: 10 µM [activator, partial curve]	
Cc1cccc2c1NC(=O)C2(c1ccc(O)cc1)c1ccc(O)cc1		inactive: 0% [at 15.6 µM, 100% = 6.5 mM cAMP response]
Cc1ccc(CN(CC(O)COc2cccc3[nH]cc(C)c23)C(C)(C)C)cc1 (centres undefined)	inactive	
CCSc1nc(-c2ccco2)ccc1C#N	inactive	
Cc1nn(-c2ccccc2)c(C)c1NC(=O)COC(=O)[C@@H](NC(=O)c1ccccc1)C(C)C	inconclusive: 126 µM [activator, single point]	
CCCc1cc(-c2n[nH]c(=S)n2C(C)c2ccccc2)cs1 (centres undefined)	inconclusive: 112 µM [activator, partial curve]	
O=C(Nc1ccc(-c2nnc(-c3ccco3)o2)cc1)C(c1ccccc1)c1ccccc1		inconclusive: 32.9% [activator] [at 15.6 µM, 100% = 6.5 mM cAMP response]
CCOc1ccccc1NC(=O)CSc1c(C)n[nH]c1C		inconclusive: -1.02% [activator]
COC(=O)[C@@H]1CCCN1C(=O)[C@@H](NC(=O)OC(C)(C)C)C(C)C	inactive	
O=C(Nc1ccc(-c2cn3ccccc3n2)cc1)c1cccs1	inconclusive: 31.6 µM [activator, full curve]	
COc1ccc(NC(=O)CS(=O)(=O)Cc2ccccc2)c([N+](=O)[O-])c1	inconclusive: 112 µM [activator, single point]	
CCS(=O)(=O)N1CCCC(C(=O)NCCCN(C)Cc2ccccc2)C1 (centres undefined)		inconclusive: 43.2% [activator] [at 15.6 µM, 100% = 6.5 mM cAMP response]
COCCNCCOCCOc1cccc(OC)c1		inconclusive: 489% [activator] [at 15.6 µM, 100% = 6.5 mM cAMP response]
COc1ccc(/C(N)=N/OC(=O)c2ccc(C)c([N+](=O)[O-])c2)cc1OC	inconclusive: 50.1 µM [activator, single point]	

Exported with bars between the fields: part of the list above
SMILES | Potency | activation
CCOc1ccccc1NC(=O)CSc1c(C)n[nH]c1C |  | inconclusive: -1.02% [activator]
COC(=O)[C@@H]1CCCN1C(=O)[C@@H](NC(=O)OC(C)(C)C)C(C)C | inactive | 
O=C(Nc1ccc(-c2cn3ccccc3n2)cc1)c1cccs1 | inconclusive: 31.6 µM [activator, full curve] | 
